Experimental data: PubChem BioAssay AID1159584 (Peter MacCallum Cancer Centre, 2016)
Shown is a random part of about 18,000 reagents tested. The record does not give: the amount of reagent, the time to read-out.

Test: 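Genes that CDH1-null MCF10A cells selectively depend on to survive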 (primary screen)
System: human MCF10A breast epithelial cells, parental and CDH1-null
Knock-down reagent: siRNA against human genes
Measurement: 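Cell viability by CellTiter-Glo ATP luminescence, each line scaled to the mean of mock wells across plates, then CDH1-null over parental ratio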
Direction: CDH1-null / parental viability ratio: higher = CDH1-null cells survive relatively better than parental; CDH1-null viability vs mock: higher = more viable CDH1-null cells; parental viability vs mock: higher = more viable parental cells

gene | CDH1-null / parental viability ratio | CDH1-null viability vs mock (fraction of mock) | parental viability vs mock (fraction of mock)
KLK5 | 0.98 | 0.39 | 0.4
TMEM178A | 0.99 | 0.8 | 0.81
KANSL1 | 0.79 | 0.3 | 0.38
WDR53 | 0.9 | 0.72 | 0.8
S100Z | 0.81 | 0.57 | 0.7
USH2A | 0.67 | 0.42 | 0.63
CDKN2C | 1.06 | 0.76 | 0.72
SPINT2 | 0.92 | 0.94 | 1.02
GUCY2EP | 1.04 | 0.88 | 0.85
POLR2H | 1.18 | 0.78 | 0.66
TBC1D8 | 1.11 | 0.92 | 0.83
PROX1 | 1.14 | 1.14 | 1
GUCY1A1 | 1.16 | 0.86 | 0.74
GPR82 | 0.83 | 0.78 | 0.94
PRSS33 | 1.17 | 0.82 | 0.7
OR7A17 | 0.96 | 0.7 | 0.73
GRAMD2B | 1.18 | 0.84 | 0.71
SHQ1 | 1.02 | 1.25 | 1.23
KLHL41 | 0.82 | 0.83 | 1.01

3 entries from above in another layout.
gene	CDH1-null / parental viability ratio	CDH1-null viability vs mock (fraction of mock)	parental viability vs mock (fraction of mock)
PRSS33	1.17	0.82	0.7
OR7A17	0.96	0.7	0.73
GRAMD2B	1.18	0.84	0.71

Continued.
gene | CDH1-null / parental viability ratio | CDH1-null viability vs mock (fraction of mock) | parental viability vs mock (fraction of mock)
TNFRSF4 | 1.14 | 0.73 | 0.64
ATP5MJ | 1.11 | 1.22 | 1.1
NBEA | 0.76 | 0.75 | 0.99
PSMD12 | 1.2 | 0.6 | 0.5
PCSK2 | 1.33 | 0.6 | 0.45
CD19 | 0.7 | 0.32 | 0.46
RNF222 | 1.05 | 1.02 | 0.97
OPN1MW2 | 1.25 | 1.09 | 0.87
SLC32A1 | 0.8 | 0.72 | 0.9
ZNF285 | 0.97 | 0.64 | 0.66
MECR | 1.07 | 1.11 | 1.04
CEP95 | 0.9 | 0.88 | 0.98
MTARC1 | 1.16 | 0.86 | 0.74
HOXD13 | 1.04 | 0.86 | 0.83
BTBD6 | 0.99 | 0.94 | 0.95
RPL39L | 1.17 | 0.88 | 0.75
MORC1 | 0.79 | 0.76 | 0.96
BACC1 | 0.95 | 0.72 | 0.76
UROD | 1.14 | 0.8 | 0.7
ISM2 | 1.03 | 0.37 | 0.36
KRT86 | 1.01 | 0.79 | 0.78
NCKAP1 | 0.84 | 0.62 | 0.74
CALHM2 | 0.83 | 0.6 | 0.72
HLA-DQB1 | 1.12 | 0.91 | 0.81
FCRL4 | 1.03 | 0.7 | 0.68
EMB | 0.61 | 0.49 | 0.8
APOBEC3A | 1.08 | 0.52 | 0.48
